For at least one entry, the source does not settle the construct or the ends of the probe. At least one result comes from cells or an extract, where the contact may be indirect.
Target: MUC1 (mucin 1) on the surface of MCF-7 cells (human (MCF-7 breast cancer cell line)) (UniProt P15941)
Assay: flow cytometry on cells
Conditions: 300 nM DNA, 5 mM Mg2+, higher on MUC1+ MCF-7 than on MUC1- HepG2; 100 mM NaCl, 5 mM MgCl2, pH 7.2, 300 nM DNA, 30 min; temperature not stated; protein on the cell surface; label: 5'-FITC; single-stranded DNA

Protein sequences, listed by entry. Tags and fused reporters are not part of them. Lines headed by an entry give the natural chain unless they say otherwise; changes in a name come on top.
UniProt P15941: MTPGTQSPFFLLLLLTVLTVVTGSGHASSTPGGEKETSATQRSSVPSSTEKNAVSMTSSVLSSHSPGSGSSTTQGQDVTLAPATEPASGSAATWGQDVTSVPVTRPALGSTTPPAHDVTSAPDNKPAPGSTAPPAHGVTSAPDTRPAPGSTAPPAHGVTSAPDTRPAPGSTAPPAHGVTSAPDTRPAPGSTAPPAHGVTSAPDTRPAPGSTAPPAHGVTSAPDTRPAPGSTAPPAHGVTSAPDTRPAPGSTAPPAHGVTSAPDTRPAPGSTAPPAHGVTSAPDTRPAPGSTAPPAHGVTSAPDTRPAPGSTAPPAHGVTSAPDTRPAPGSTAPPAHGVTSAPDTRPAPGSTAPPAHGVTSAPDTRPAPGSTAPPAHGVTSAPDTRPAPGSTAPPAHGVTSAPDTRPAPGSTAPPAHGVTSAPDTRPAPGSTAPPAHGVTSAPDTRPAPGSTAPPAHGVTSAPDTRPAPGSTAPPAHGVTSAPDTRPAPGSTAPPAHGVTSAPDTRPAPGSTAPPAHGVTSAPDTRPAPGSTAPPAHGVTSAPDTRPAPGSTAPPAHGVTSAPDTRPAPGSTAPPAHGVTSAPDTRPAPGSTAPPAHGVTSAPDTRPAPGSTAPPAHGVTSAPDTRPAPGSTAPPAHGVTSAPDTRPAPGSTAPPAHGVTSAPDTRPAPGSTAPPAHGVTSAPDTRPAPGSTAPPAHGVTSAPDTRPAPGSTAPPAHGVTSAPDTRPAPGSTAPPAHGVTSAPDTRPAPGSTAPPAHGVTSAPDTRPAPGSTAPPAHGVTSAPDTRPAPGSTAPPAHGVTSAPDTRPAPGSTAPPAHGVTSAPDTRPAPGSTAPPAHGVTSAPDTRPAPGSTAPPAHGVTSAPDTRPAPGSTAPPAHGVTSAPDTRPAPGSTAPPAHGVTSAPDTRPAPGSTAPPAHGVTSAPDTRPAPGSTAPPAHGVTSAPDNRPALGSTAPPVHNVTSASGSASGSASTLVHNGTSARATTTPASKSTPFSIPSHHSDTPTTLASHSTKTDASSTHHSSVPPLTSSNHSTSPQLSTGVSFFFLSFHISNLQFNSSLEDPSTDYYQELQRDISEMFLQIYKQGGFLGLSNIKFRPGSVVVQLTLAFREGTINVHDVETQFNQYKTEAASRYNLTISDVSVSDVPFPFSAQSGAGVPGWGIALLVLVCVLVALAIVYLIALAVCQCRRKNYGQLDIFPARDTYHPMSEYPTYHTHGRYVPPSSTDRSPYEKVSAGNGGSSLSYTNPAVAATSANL

**Q.** Does “GCAGTTGATCCTTTGGATACCCTGG [MUC1 aptamer S2.2]” bind?
**A.** Result: binds
